This assay deals with Calmodulin-binding transcription activator 1 (CAMTA1) (human (endogenous in SW480 and SW620)) (UniProt Q9Y6Y1). Description: co-IP; SW480 and SW620 cells lysed in RIPA buffer (50 mM Tris-HCl, 150 mM NaCl, 1% Nonidet-40, 0.5% sodium deoxycholate, 1 mM EDTA, 0.1% SDS, pH 7.4); 1 mg protein with 3 ug anti-CAMTA1, anti-NFATc4 or anti-PPP3CA IgG overnight at 4 °C; protein A agarose beads 2 h at 4 °C; western blot.

The chains behind the UniProt entries cited, without tags or fusion partners.
UniProt Q9Y6Y1: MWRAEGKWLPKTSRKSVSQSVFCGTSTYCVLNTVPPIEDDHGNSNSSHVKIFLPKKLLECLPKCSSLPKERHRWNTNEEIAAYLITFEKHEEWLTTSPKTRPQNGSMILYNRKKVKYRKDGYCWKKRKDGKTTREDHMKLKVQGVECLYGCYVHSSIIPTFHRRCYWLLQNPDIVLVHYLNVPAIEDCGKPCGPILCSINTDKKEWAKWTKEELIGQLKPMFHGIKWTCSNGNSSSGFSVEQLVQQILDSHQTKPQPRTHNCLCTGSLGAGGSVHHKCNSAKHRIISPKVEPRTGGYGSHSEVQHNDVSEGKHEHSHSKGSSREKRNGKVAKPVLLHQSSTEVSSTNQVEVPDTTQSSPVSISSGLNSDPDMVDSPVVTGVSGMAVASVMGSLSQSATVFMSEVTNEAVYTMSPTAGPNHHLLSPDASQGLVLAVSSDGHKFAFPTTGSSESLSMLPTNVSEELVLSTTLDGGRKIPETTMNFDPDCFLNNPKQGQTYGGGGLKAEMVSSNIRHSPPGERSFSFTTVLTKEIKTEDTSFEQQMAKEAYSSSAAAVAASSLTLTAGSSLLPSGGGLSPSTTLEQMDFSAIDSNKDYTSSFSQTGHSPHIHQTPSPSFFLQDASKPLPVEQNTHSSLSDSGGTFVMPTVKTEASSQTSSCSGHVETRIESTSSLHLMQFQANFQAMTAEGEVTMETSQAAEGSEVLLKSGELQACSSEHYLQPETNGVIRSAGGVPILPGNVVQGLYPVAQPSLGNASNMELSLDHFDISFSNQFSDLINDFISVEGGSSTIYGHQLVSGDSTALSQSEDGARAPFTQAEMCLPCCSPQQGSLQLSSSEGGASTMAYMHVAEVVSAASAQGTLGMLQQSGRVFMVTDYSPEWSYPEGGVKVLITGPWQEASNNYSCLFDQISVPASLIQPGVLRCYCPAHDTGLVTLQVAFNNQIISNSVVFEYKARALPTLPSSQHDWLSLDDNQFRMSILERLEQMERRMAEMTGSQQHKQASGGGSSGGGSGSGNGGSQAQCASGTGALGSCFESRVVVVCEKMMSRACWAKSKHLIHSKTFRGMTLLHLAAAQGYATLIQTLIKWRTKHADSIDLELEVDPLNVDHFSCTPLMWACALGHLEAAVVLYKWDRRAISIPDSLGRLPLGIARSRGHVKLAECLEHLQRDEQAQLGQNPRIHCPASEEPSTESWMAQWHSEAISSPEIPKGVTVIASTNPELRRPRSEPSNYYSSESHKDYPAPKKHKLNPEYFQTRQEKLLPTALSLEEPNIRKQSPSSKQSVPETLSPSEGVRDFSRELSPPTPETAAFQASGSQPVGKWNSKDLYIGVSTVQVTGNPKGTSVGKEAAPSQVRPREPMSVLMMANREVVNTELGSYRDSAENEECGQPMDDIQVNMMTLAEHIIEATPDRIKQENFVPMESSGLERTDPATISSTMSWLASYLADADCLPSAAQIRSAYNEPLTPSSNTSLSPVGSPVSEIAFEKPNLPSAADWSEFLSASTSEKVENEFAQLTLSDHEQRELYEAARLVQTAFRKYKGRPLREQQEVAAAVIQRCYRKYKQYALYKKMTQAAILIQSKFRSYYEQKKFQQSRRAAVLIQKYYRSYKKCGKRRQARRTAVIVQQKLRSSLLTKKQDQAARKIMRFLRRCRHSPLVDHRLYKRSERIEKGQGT

Results are given in words; binding and its absence hold for the method and conditions named. Binding seen in cells or lysates may run through a third protein. Some entries that bind do so weakly or less than the wild type.

B1: Nuclear factor of activated T cells, cytoplasmic 4 (NFATc4) (protein, UniProt Q14934-11 1-857)
chain: MITTLPSLLPASLASISHRVTNLPSNSLSHNPGLSKPDFPGNSSPGLPSSSSPGRDLGAPAGSMGAASCEDEELEFKLVFGEEKEAPPLGAGGLGEELDSEDAPPCCRLALGEPPPYGAAPIGIPRPPPPRPGMHSPPPRPAPSPGTWESQPARSVRLGGPGGGAGGAGGGRVLECPSIRITSISPTPEPPAALEDNPDAWGDGSPRDYPPPEGFGGYREAGGQGGGAFFSPSPGSSSLSSWSFFSDASDEAALYAACDEVESELNEAASRFGLGSPLPSPRASPRPWTPEDPWSLYGPSPGGRGPEDSWLLLSAPGPTPASPRPASPCGKRRYSSSGTPSSASPALSRRGSLGEEGSEPPPPPPLPLARDPGSPGPFDYVGAPPAESIPQKTRRTSSEQAVALPRSEEPASCNGKLPLGAEESVAPPGGSRKEVAGMDYLAVPSPLAWSKARIGGHSPIFRTSALPPLDWPLPSQYEQLELRIEVQPRAHHRAHYETEGSRGAVKAAPGGHPVVKLLGYSEKPLTLQMFIGTADERNLRPHAFYQVHRITGKMVATASYEAVVSGTKVLEMTLLPENNMAANIDCAGILKLRNSDIELRKGETDIGRKNTRVRLVFRVHVPQGGGKVVSVQAASVPIECSQRSAQELPQVEAYSPSACSVRGGEELVLTGSNFLPDSKVVFIERGPDGKLQWEEEATVNRLQSNEVTLTLTVPEYSNKRVSRPVQVYFYVSNGRRKRSPTQSFRFLPVICKEEPLPDSSLRGFPSASATPFGTDMDFSPPRPPYPSYPHEDPACETPYLSEGFGYGMPPLYPQTGPPPSYRPGLRMFPETRGTTVSEIIGRDLSGFPAPPGEEPPA
In the case of B1, the binding entry is “binds”.

For the origin of these results see publication PMC8948201.
